In patent EP4843985A1, “TRIAZOLOPYRIMIDINE DERIVATIVE, PREPARATION METHOD THEREFOR AND USE THEREOF” (dated 2026):
The match of structure and compound is tentative.

Chains of the proteins cited; added tags and fusions are not shown. Residues count along the entry.
UniProt Q14191, 517-1238 limits assumed: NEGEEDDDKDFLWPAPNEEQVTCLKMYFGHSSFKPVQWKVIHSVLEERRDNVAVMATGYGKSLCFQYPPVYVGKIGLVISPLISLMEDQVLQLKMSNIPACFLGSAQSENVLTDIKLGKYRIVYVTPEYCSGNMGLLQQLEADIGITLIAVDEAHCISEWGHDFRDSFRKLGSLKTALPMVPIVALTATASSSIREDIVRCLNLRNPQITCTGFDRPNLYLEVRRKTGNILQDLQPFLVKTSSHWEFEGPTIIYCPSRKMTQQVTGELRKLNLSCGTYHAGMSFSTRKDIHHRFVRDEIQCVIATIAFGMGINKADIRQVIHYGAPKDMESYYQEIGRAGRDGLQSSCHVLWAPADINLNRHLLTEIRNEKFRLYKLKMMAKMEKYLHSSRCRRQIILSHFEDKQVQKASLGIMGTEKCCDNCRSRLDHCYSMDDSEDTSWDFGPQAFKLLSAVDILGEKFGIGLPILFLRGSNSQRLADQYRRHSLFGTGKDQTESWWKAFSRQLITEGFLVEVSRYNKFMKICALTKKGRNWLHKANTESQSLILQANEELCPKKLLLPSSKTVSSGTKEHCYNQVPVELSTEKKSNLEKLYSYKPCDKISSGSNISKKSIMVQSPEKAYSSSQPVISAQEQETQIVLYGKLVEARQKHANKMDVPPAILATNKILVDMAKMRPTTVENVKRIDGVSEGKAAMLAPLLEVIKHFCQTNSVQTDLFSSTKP

Tests used:
SW620 (CRC, MSS) = experiment: Cell proliferation inhibition assay (CellTiter-Glo), SW620; conditions: read-out: SW620 (CRC, MSS), 120 hours
[1] = target: WRN protein (AA N517-P1238) (Homo sapiens, UniProt Q14191); experiment: In vitro WRN enzymatic activity assay (ADP-Glo ATPase assay); conditions: read-out: ADP-Glo; 10 nM WRN enzyme, 3 hours pre-incubation at 25°C, ssDNA substrate
SW48 (CRC, MSI) = experiment: Cell proliferation inhibition assay (CellTiter-Glo), SW48; conditions: for IC50: read-out: SW48 (CRC, MSI), 120 hours, CellTiter-Glo
[2] = Pharmacokinetics in balb/c nude mice (IV and PO); conditions: for F: 10 mg/kg (vs IV 1 mg/kg)
[3] = system: human colorectal cancer SW48 cell subcutaneous xenograft tumor; experiment: In vivo pharmacodynamic study in the SW48 xenograft tumor model; conditions: for TGI (%) Day21: N=6
Method: To evaluate the in vivo efficacy of the compounds in a human colorectal cancer SW48 cell subcutaneous xenograft tumor mouse model.
• Species: Mouse • Strain: NU/NU mouse • Age and body weight: 6-8 weeks of age, weighing 20-24 g • Sex: Female • Quantity: 110 (including remaining mice from grouping) • Supplier: Beijing Vital River Laboratory Animal Technology Co., Ltd. • Animal certificate: 110011241105714757
Human colon cancer SW48 cells (supplier: ECACC; catalog No.: 89012702) were cultured in vitro as a monolayer. The culture conditions were as follows: L-15 medium (supplier: Gibco; catalog No.: 11415-064) supplemented with 2 mM glutamine (supplier: Gibco; catalog No.: 25030-081), 10% fetal bovine serum (supplier: Excell; catalog No.: FSP500), and 1% antibiotics (supplier: Gibco; catalog No.: 15240-062) in a cell culture incubator at 37°C with 5% CO2. Routine passaging was performed by digestion twice a week. When the cell confluence reached 80% to 90% and the cell number met the requirement, the cells were harvested, counted, and inoculated.
A 0.1 mL cell suspension containing 3.0*10^6 SW48 cells (the cells were suspended in medium L15:Matrigel =1:1) was subcutaneously inoculated into the right dorsal flank of each mouse. On Day 7 after inoculation, animals with uniform and appropriate tumor sizes were selected for enrollment, with the mean tumor volume reaching 117 mm^3 (range: 89 mm^3 - 161 mm^3). The animals were assigned to groups according to tumor volume using a randomized block design, and dosing was initiated.
The health status and mortality of the animals were monitored daily. Routine inspections included observing the effects of tumor growth and drug treatment on the animals' daily behavioral performance, such as behavioral activity, food and water intake (visual inspection only), body weight changes (body weight was measured three times per week), appearance signs, or other abnormal conditions. Based on the number of animals in each group, the number of animal deaths and side effects within the group were recorded.
Tumor diameters were measured three times per week using a vernier caliper. The formula for calculating tumor volume was: V = 0.5a × b^2, wherein a and b represent the long and short diameters of the tumor, respectively.
The anti-tumor efficacy of the compounds was evaluated by the tumor growth inhibition rate TGI (%). The TGI (%) was calculated as: TGI (%) = [1 - (mean tumor volume of a treatment group at the end of administration - mean tumor volume of the treatment group at the start of administration) / (mean tumor volume of the vehicle control group at the end of treatment - mean tumor volume of the vehicle control group at the start of treatment)] × 100%.

[4] = Pharmacokinetics in dogs (IV and PO)
Method: Using mice, rats, dogs, and monkeys as test animals, the compounds of the present disclosure were studied after intravenous bolus injection and oral administration. Plasma samples were collected at specific time points, and the concentrations of the compounds in plasma were detected by LC-MS/MS. PK parameters were calculated to reflect the pharmacokinetic behavior of the compounds of the present disclosure in mouse plasma in vivo.
Beagle dogs, male, Beijing Marshall Biotechnology Co.,Ltd.
Administration information for dog: The IV administration dose was 0.5 mg/kg, with an administration volume of 0.5 mL/kg; the IV administration dose was 1 mg/kg, with an administration volume of 0.5 mL/kg; the PO administration dose was 1 mg/kg, with an administration volume of 2 mL/kg; and the vehicle was 10 vol% DMSO/20 vol% Solutol/70 vol% Saline.
After administration to mice, rats, dogs, and monkeys, blood was collected from the vein at 0.0833 (IV), 0.25, 0.5, 1, 2, 4, 8, and 24 hours, with volumes of 0.025, 0.2, 0.5, and 0.6 mL, respectively, placed into EDTA-K2 tubes, and centrifuged at 4°C and 2000 g for 10 min to separate plasma, which was stored at -80°C.
Dog plasma sample processing: • 1) 50 µL of plasma sample was added to 200 µL of acetonitrile for precipitation, vortexed to mix, and then centrifuged for 15 minutes. • 2) The treated supernatant was diluted with water, and the concentration of the test compound was analyzed by LC/MS/MS.
Herein, Cmax represents the maximum plasma concentration; CL represents clearance; Vss represents the volume of distribution at steady state; T1/2 represents the terminal elimination half-life; MRTInf represents the mean residence time; AUC represents the area under the plasma concentration-time curve; and F represents bioavailability. Table 6 Pharmacokinetic parameters of some compounds of the present disclosure after intravenous injection and oral administration in balb/c nude mice

Compound | IC50 (SW620 (CRC, MSS)) [nM] | IC50 [1] [nM] | IC50 (SW48 (CRC, MSI)) [nM] | further results
[2H]C1([2H])CCC(c2nc3n4c(c(N5CCN(C(=O)c6ncnc(C)c6O)[C@H]6CC[C@@H]65)c(=O)n3n2)C(C)CC4C(=O)Nc2cc(C(F)(F)F)sc2Cl)=CCO1 (some centres unmarked) [296-P2] | > 10000 | 0.98 | 17 | –
[2H]C1([2H])CCC(c2nc3n4c(c(N5CCN(C(=O)c6ncnc(C)c6O)[C@H]6CC[C@@H]65)c(=O)n3n2)C(C)CC4C(=O)Nc2csc(C(F)(F)F)c2C)=CCO1 (some centres unmarked) [322-P4] | > 10000 | 1.09 | 8.2 | AUC ([2]; IV, 1 mg/kg): 1586 ng·h/mL; T1/2 ([2]; IV, 1 mg/kg): 1.37 h; AUC ([2]; PO, 10 mg/kg): 8253 ng·h/mL; Cmax ([2]; PO, 10 mg/kg): 3257 ng/mL; F ([2]; PO): 52.0%
[2H]C1([2H])CCC(c2nc3n4c(c(N5CCN(C(=O)c6ncnc(C)c6O)[C@H]6CC[C@@H]65)c(=O)n3n2)C(C)CC4C(=O)Nc2cc(C(F)(F)F)sc2Cl)=CCO1 (some centres unmarked) [296-P4] | > 10000 | 0.64 | 8.95 | AUC ([2]; IV, 1 mg/kg): 1767 ng·h/mL; T1/2 ([2]; IV, 1 mg/kg): 1.22 h; AUC ([2]; PO, 10 mg/kg): 6410 ng·h/mL; Cmax ([2]; PO, 10 mg/kg): 3010 ng/mL; F ([2]; PO): 36.0%
CCc1c(N2CCN(C(=O)c3c(O)ccc4ccnn34)CC2)c(=O)n2nc(C3=CCOCC3)nc2n1CC(=O)Nc1ccc(C(F)(F)F)cc1Cl | – | 2.51 | – | –
[2H]C1([2H])CCC(c2nc3n4c(c(N5CCN(C(=O)c6ncnc(C)c6O)[C@H]6CC[C@@H]65)c(=O)n3n2)C(C)CC4C(=O)Nc2scc(C(F)(F)F)c2C)=CCO1 (some centres unmarked) | – | – | 18 | cell inhibitory activity (in words) (SW48 (CRC, MSI)): maintain excellent cell inhibitory activity
[2H]C1([2H])CCC(c2nc3n4c(c(N5CCN(C(=O)c6ncnc(C)c6O)[C@H]6CC[C@@H]65)c(=O)n3n2)C(C)CC4C(=O)Nc2csc(C(F)(F)F)c2C)=CCO1 (some centres unmarked) [322-P3] | > 10000 | 1.02 | 14.2 | –
[2H]C1([2H])CCC(c2nc3n(CC(=O)Nc4scc(C(F)(F)F)c4C)c(CC)c(N4CCN(C(=O)c5ncnc(C)c5O)[C@H]5CC[C@@H]54)c(=O)n3n2)=CCO1 | > 10000 | 1.06 | 10 | TGI (%) Day21 ([3]; 1 mg/kg): 33.96%; TGI (%) Day21 ([3]; 3 mg/kg): 74.46%; anti-tumor effects (in words) ([3]; 10 mg/kg): significant anti-tumor effects; TGI (%) Day21 ([3]; 10 mg/kg): 101.85%; AUC ([2]; IV, 1 mg/kg): 1503, h*ng/mL; T1/2 ([2]; IV, 1 mg/kg): 1.12 h; AUC ([2]; PO, 10 mg/kg): 10198 ng·h/mL; Cmax ([2]; PO, 10 mg/kg): 4657 ng/mL; T1/2 ([2]; PO, 10 mg/kg): 1.60 h; F ([2]; PO): 67.9%; AUC ([4]; IV, 0.5 mg/kg): 1.365 µM·h; T1/2 ([4]; IV, 0.5 mg/kg): 4.05 h; AUC ([4]; PO, 1 mg/kg): 3.388 µM·h; Cmax ([4]; PO, 1 mg/kg): 684 nM; F ([4]; PO, 1 mg/kg): 127%; T1/2 ([4]; PO, 1 mg/kg): 4.43 h
[2H]C1([2H])CCC(c2nc3n(CC(=O)Nc4csc(C(F)(F)F)c4C)c(CC)c(N4CCN(C(=O)c5ncnc(C)c5O)[C@H]5CC[C@@H]54)c(=O)n3n2)=CCO1 | > 10000 | 1.17 | 17.4 | –

The next lines start with results.

IC50 (SW620 (CRC, MSS)) [nM] | IC50 [1] [nM] | IC50 (SW48 (CRC, MSI)) [nM] | Compound | further results
– | 1.8 | – | CCc1c(N2CCN(C(=O)c3ncnc(C)c3O)CC2)c(=O)n2nc(C3=CCC(c4cnc(C)o4)CC3)nc2n1CC(=O)Nc1ccc(C(F)(F)F)cc1Cl (centres unmarked) | –
> 10000 | 1.74 | 32.6 | [2H]C1([2H])CCC(c2nc3n(CC(=O)Nc4scc(C(F)(F)F)c4C)c(CC)c(N4CCN(C(=O)c5ncnc(C)c5O)CC4)c(=O)n3n2)=CCO1 | –
– | 20.3 | – | CCc1c(N2CCN(C(=O)c3ncnc(C)c3O)CC2)c(=O)n2nc(C3=CCOCC3)nc2n1CC(=O)Nc1ccc(C(F)(F)F)s1 | –
> 10000 | 4.6 | 76.3 | CCc1c(N2CCN(C(=O)c3ncnc(C)c3O)CC2)c(=O)n2nc(C3=CCN(C(=O)OC4CCC(OC)CC4)CC3)nc2n1CC(=O)Nc1ccc(C(F)(F)F)cc1Cl (centres unmarked) | –
– | 3.42 | – | CCc1c(N2CCN(C(=O)c3ncnc(C)c3O)CC2)c(=O)n2nc(C3=CCOCC3)nc2n1CC(=O)Nc1cc(C(F)(F)F)cs1 | –
